Results are given in words; binding and its absence hold for the method and conditions named. Binding seen in cells or lysates may run through a third protein. Binding can be weak; no strength is given.
T1: semaphorin 7A (murine, Sema7a) (mouse (endogenous in murine blood and heart tissue)) (UniProt Q9QUR8)
T1 sequence: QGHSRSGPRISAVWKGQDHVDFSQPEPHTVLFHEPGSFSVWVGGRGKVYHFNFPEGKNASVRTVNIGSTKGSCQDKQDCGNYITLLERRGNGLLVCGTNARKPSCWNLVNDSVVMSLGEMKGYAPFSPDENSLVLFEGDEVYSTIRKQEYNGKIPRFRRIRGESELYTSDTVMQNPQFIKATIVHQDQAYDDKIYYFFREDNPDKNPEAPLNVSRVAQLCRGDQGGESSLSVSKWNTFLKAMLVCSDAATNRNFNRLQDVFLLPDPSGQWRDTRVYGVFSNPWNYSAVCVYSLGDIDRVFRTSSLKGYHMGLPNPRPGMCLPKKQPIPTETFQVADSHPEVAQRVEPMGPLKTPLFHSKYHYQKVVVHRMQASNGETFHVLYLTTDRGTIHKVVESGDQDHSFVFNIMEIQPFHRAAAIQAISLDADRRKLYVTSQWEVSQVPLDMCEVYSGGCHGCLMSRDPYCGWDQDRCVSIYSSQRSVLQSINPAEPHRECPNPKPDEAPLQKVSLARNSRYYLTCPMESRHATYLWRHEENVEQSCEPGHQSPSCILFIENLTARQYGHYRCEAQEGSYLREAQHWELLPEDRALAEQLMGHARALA

B1: semaphorin 7A (murine, Sema7a) (protein, UniProt Q9QUR8 45-646)
chain: T1 sequence

Legend:
[1] = molecular target: T1, semaphorin 7A (murine, Sema7a) (mouse (endogenous in murine blood and heart tissue)); test: co-IP; Pierce Co-IP Kit; anti-Sema7a (sc374432) or anti-GPIb (p0p4) antibody immobilised on Amino Link Plus Coupling Resin; lysates of murine blood (60-min ischemia, 1-min reperfusion) or heart AAR (60-min ischemia, 15-min reperfusion) in IP-Lysis/wash buffer; rat or mouse IgG as control; immunoblot for GPIb (p0p5) or Sema7a (sc135263)
[2] = molecular target: platelet glycoprotein Ib (GPIb) (mouse (endogenous in murine blood and heart tissue)); test: as above

| Molecule | binding [1] | binding [2] |
| --- | --- | --- |
| platelet glycoprotein Ib (GPIb) (receptor) | binds |  |
| B1 |  | binds |

Reference: article PMC7066172
